In US4963563A, “6-substituted-1,2,3,4-tetrahydroisoquinolines” (Abbott Laboratories, priority 1989, dated 1990):

The molecules below were run on alpha-2-receptor (assay: Radioligand binding, alpha-2 adrenoceptor ([3H]-rauwolscine, rat cerebral cortices)). Details: ratio of Ki at alpha-1 to Ki at alpha-2.

| Compound | Alpha-2 Selectivity Ki α1 /Ki α2 |
| --- | --- |
| COc1ccc2c(c1)CCN(CCCc1cccs1)C2.Cl [Example 2, 1,2,3,4-Tetrahydro-6-methoxy-N-3-(2-thienyl)propylisoquinoline hydrochloride] | 35 |
| COc1ccc2c(c1)CCN(CCCc1cccc(F)c1)C2.Cl [Example 5, 1,2,3,4-Tetrahydro-6-methoxy-N-3-(m-fluorophenyl)propyl isoquinoline hydrochloride] | 45 |
| COc1ccc2c(c1)CCN(CCCc1ccco1)C2.Cl [Example 6, 1,2,3,4-Tetrahydro-6-methoxy-N-3-(2-furyl)propylisoquinoline hydrochloride] | 69 |
| COc1ccc2c(c1)CCN(CCCc1ccccc1)C2.Cl [Example 7, 1,2,3,4-Tetrahydro-6-methoxy-N-(3-phenylpropyl)isoquinoline hydrochloride] | 37 |
| COc1cccc(CCCN2CCc3cc(OC)ccc3C2)c1.Cl [Example 8, 1,2,3,4-Tetrahydro-6-methoxy-N-3-(3-methoxyphenyl)propyl isoquinoline hydrochloride] | 16 |
| Cc1ccc2c(c1)CCN(CCCc1ccccc1)C2 [Example 13, 1,2,3,4-Tetrahydro-6-methyl-N-(3-(phenylpropylisoquinoline Hydrochloride] | 20 |

Where a name gives a salt, the structure may show the parent alone.
